# Assay results published in PubChem BioAssay AID493014 (National Center for Advancing Translational Sciences (NCATS), 2011).
# Screen size: about 340,000 compounds; about 170 (0.05%) were called active. Inconclusive results, whose numbers are uncertain, are shown with a selection of clear calls. Calls come from the whole dose curve; as a rule, active = well fitted inhibition curve with a large enough effect in the signal ratio, with a control signal flat (not every such curve was filed as active); inconclusive = small, poorly fitted or top-dose-only effect, or effect the other way, or a change in a side signal; inactive = flat fitted curve, though single readings scatter; the % refers to the signal ratio. Potencies beside an inconclusive call are fits to weak or partial responses and may not hold up.
# Test: qHTS Assay to Find Inhibitors of Chronic Active B-Cell Receptor Signaling;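 for activity change, negative = inhibition: plate controls were basal doxycycline-induced cells for no effect and cells given 10 µM MG132 for full effect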
# Conditions: ABC-DLBCL IkBa-CBG/CBR reporter, luminescence ratio (green luciferase fused to IkBa over red control in TMD8 lymphoma cells), 4 h; activity change, negative = inhibition: at 46.1 µM (top of the series)
# Outline: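 Cell line TMD8 (human ABC DLBCL), stably expressing tet-inducible CBG68-IkBa fusion and CBR; IMDM/0.5% FBS; cpd up to 46 uM; dox induction, 4 h, 37C/5% CO2; dual luminescence; green/red ratio; MG132 control.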
# Potency is the fitted concentration of half-maximal effect.
Compound,"activity change, negative = inhibition",Potency
Cc1c(N2C(=O)/C(=C\c3ccc(N(C)C)cc3)N(C)C2=S)c(=O)n(-c2ccccc2)n1C,inconclusive: 17.7%,–
COc1ccc(CC(=O)NCc2ccc3c(c2)OCO3)cc1,inconclusive: -2.84%,–
Nc1ccc(Br)c2c1C(=O)c1ccccc1C2=O,inconclusive: 0.974%,–
COc1ccc(C=O)cc1COc1ccc2c(c1)OCO2,inconclusive: -24.7%,–
COc1ccc(-c2csc(NC(=S)NC(=O)c3cc4ccccc4o3)n2)cc1Br,inconclusive: 4.02%,–
CN(CC(=O)Nc1ccccc1Br)C(=O)c1cc2c(s1)CCCCC2,inconclusive: -11.7%,–
COc1cc(OC)c2c(-c3cccc(-c4ccoc4)c3)cc(=O)oc2c1,inconclusive: -15.6%,–
Cc1nn(CC(=O)O)c(=O)c2ccccc12,inconclusive: 5.68%,–
COCc1cc(C)nc(OCC(=O)N/N=C/c2ccc(-c3cc([N+](=O)[O-])ccc3C)o2)c1C#N,inconclusive: 1.35%,–
Fc1ccc(/C=N/NC(=S)Nc2ccc(Cl)cc2)cc1F,inconclusive: -1.92%,–
C=CCNC(=O)c1onc(CSc2ccccc2)c1C(=O)O,–,"inconclusive: 35.5 µM [rising, single point]"
CN(Cc1ccccc1)C(=O)c1ccc(NC(=O)Cc2cccc(NC(=O)C3CCN(C(=O)C4CCC4)CC3)c2)cc1,inactive,–
CCSc1nnc(CSc2ncccn2)n1C,inconclusive: 0.0681%,–
COC(=O)c1sccc1NC(=O)Nc1ccc(C)cc1,–,"inconclusive: 17.8 µM [falling, partial curve]"
COc1ccc(CC2(CO)CCN(C(C)COc3ccccc3)CC2)cc1 (configuration not stated),–,"inconclusive: 0.501 µM [rising, full curve, poor fit]"
COc1c(C(=O)Nc2ccc(Cc3ccncc3)cc2)ccc2ccccc12,–,"inconclusive: 20.6 µM [falling, partial curve, poor fit]"
CC(C)CCNC(=O)c1onc(CSc2nc3ccccc3[nH]2)c1C(=O)NCCC(C)C,inactive,–
CC(=O)Nc1cccc(Oc2ccc3c(c2)C(=O)NC3=O)c1,–,"inconclusive: 14.1 µM [falling, partial curve, poor fit]"
O=C(O)C/C(=C\c1cccc(NC(=O)c2ccccc2Cl)c1)c1nc2ccccc2s1,inactive,–
O=C(Nc1cccc(S(=O)(=O)N2CCCC2)c1)c1cc(=O)[nH]c2ccccc12,inconclusive: 2.53%,–
COC(=O)c1ccc(NC(=O)CCNS(=O)(=O)c2cccc3nonc23)cc1,inconclusive: -0.369%,–
Cc1cc(C(=O)Nc2cnc3ccccc3c2)ccc1[N+](=O)[O-],inconclusive: 5.43%,–

# Entries of single compounds as entered above. Values in the order: activity change, negative = inhibition	Potency
# COc1ccc(C=O)cc1COc1ccc2c(c1)OCO2 reads inconclusive: -24.7%	–
# O=C(Nc1cccc(S(=O)(=O)N2CCCC2)c1)c1cc(=O)[nH]c2ccccc12 reads inconclusive: 2.53%	–
